Test results reported in publication PMC10709176.

Target: human serum albumin (HSA) (Homo sapiens) (UniProt P02768)
Test: SPR
Settings: 2'-OMe at C1,G2,G3,G4,U37,G38,C39,C40, 3' idT, 5' linker (NH2 and SH) carrying both HC (hydroxycoumarin maleimide) and DA (dodecanedioic acid), protein amine-coupled on CM5 chip (immobilization at 25 C), aptamers in 1x PBS, multi-cycle kinetics, 1:1 fit, single-stranded DNA

Q: With “CGGGGTGTGGGTTCGTCGTTAGCTTGATTTGGCAGCUGCC [Apc001OC]” as the sequence, how does the Kd (pre-saturated with blocking peptide A) read?
A: 27.8 nM

Q: What about the Kd (pre-saturated with blocking peptide B) of the same sequence?
A: 23.5 nM

Q: Does “CGGGGTGTGGGTTCGTCGTTAGCTTGATTTGGCAGCUGCC [Apc001OC]” bind (pre-saturated with blocking peptide C)?
A: no binding

Q: And the Kd (pre-saturated with blocking peptide D)?
A: 12.6 nM

No signal at the amounts used counts as a negative. The exact form of at least one protein or probe is not confirmed.
